Drawing on publication PMC3088716, this text covers binding for two substances.

Experiment [1] has as its target T1, HA-tagged ZNF541 (mouse) (UniProt Q0GGX2).
T1 sequence: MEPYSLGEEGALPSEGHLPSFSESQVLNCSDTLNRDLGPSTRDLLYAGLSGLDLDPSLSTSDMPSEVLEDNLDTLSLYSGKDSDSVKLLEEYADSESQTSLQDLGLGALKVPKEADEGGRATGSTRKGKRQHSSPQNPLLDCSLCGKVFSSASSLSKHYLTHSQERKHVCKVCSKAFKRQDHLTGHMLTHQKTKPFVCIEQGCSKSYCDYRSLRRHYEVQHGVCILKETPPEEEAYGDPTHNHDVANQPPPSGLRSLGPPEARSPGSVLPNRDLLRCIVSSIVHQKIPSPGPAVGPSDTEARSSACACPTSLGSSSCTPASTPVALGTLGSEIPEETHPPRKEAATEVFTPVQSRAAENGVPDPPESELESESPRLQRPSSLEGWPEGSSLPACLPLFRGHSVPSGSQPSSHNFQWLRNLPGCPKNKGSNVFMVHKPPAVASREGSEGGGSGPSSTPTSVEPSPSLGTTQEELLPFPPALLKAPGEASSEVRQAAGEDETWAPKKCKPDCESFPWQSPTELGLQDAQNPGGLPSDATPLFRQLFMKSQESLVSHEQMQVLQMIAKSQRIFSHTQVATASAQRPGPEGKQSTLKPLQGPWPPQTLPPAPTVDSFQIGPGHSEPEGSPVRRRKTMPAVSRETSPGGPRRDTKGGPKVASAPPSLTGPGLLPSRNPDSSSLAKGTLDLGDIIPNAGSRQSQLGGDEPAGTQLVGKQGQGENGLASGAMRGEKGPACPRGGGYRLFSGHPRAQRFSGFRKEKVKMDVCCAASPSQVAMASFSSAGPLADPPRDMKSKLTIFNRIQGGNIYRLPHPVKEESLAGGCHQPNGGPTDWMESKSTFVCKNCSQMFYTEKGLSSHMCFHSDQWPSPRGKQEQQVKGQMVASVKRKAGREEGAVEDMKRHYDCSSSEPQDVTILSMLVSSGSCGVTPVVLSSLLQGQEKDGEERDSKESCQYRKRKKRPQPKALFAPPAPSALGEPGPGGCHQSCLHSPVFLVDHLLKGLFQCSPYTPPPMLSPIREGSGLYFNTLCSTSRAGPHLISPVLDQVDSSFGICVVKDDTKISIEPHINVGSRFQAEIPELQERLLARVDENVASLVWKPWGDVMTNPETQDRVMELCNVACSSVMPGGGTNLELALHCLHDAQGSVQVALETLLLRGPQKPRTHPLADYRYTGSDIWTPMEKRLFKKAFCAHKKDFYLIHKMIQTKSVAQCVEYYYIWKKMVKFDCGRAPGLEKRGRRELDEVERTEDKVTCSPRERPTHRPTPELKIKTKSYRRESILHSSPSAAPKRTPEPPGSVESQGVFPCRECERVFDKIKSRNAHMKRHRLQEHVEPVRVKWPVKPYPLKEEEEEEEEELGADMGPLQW
As to the kind of experiment: co-IP; FLAG- and HA-tagged proteins co-expressed in HEK293 cells (harvested 24 hrs after transfection); whole cell lysates in MAPK buffer; agarose beads with anti-FLAG or anti-HA antibodies, 4°C, 2.5 hrs.

The target of experiment [2] is T2, HA-tagged Dnttip1 (mouse) (UniProt Q99LB0).
T2 sequence: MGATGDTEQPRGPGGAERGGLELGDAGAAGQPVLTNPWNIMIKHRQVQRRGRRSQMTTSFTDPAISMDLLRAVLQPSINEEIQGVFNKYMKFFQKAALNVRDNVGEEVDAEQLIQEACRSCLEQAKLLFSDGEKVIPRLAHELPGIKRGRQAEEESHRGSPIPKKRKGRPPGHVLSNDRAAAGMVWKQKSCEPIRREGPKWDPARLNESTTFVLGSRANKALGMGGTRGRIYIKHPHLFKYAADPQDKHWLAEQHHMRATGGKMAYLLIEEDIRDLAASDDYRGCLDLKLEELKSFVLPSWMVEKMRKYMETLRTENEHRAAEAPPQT
Described as above.

These are yes or no findings as the source states them, for the method shown. In cells and extracts the contact can be indirect. Binding can be weak; no strength is given. Tags and fused reporters may be left off the sequences shown.

As for “FLAG-tagged PKG-Iβ(S64D), constitutively active (from UniProt Q13976-2) (enzyme)”, the binding result in experiment [1] and in experiment [2] was “binds” throughout.

On to “FLAG-tagged PKG-Iβ(K390A), kinase dead (enzyme)”, for which the binding entry in experiment [1] and in experiment [2] was “binds” throughout.
